Results are given in words; binding and its absence hold for the method and conditions named. Binding seen in cells or lysates may run through a third protein. Some results given as binding are weak or reduced against the parent protein; the word gives no strength. For part of these data: Sequences can lack the tags named with a protein.

Assay [1] concerns the target T1, GST-LKB1 (UniProt Q15831).
T1 sequence: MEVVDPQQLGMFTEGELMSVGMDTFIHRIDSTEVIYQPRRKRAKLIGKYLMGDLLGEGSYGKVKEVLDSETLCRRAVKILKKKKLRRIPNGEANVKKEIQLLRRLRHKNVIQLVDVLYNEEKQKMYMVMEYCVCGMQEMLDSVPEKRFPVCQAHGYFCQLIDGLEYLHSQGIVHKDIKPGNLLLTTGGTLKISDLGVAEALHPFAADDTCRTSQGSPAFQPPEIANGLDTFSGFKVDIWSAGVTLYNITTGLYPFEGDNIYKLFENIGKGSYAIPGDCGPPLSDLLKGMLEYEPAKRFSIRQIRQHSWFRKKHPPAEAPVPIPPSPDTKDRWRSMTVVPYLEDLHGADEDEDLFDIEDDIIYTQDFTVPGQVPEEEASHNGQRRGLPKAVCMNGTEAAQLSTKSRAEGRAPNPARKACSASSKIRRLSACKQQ
The assay is described as follows: pull-down; purified GST fusion protein on glutathione beads mixed with HA-tagged protein at 4 °C for 12 h; beads washed three times, detection by protein blotting; GST-only as control; only the target purified.

Assay [2] has as its target DENV-2 NS1 overexpressed in HUVEC (Dengue virus 2) (UniProt P14340). The assay is described as follows: co-IP; HUVEC (DENV-2 infected, or overexpressing NS1 or its Wing domain) lysed in RIPA buffer with protease inhibitors; 2 mg whole cell lysate precleared with protein G beads, 2 μg indicated antibody or isotype-matched IgG control, 2 h.
Assay [3] addresses GST-NS1 (Dengue virus 2) (UniProt P14340). In words: pull-down; purified GST fusion protein on glutathione beads mixed with HA-tagged protein at 4 °C for 12 h; beads washed three times, detection by protein blotting; GST-only as control; only the target purified.

With HA-NS1 (from UniProt P14340 776-1127), the binding result in assay [1] is “binds”.

B1: LKB1 (endogenous, HUVEC) (protein, UniProt Q15831-1 1-433)
chain: MEVVDPQQLGMFTEGELMSVGMDTFIHRIDSTEVIYQPRRKRAKLIGKYLMGDLLGEGSYGKVKEVLDSETLCRRAVKILKKKKLRRIPNGEANVKKEIQLLRRLRHKNVIQLVDVLYNEEKQKMYMVMEYCVCGMQEMLDSVPEKRFPVCQAHGYFCQLIDGLEYLHSQGIVHKDIKPGNLLLTTGGTLKISDLGVAEALHPFAADDTCRTSQGSPAFQPPEIANGLDTFSGFKVDIWSAGVTLYNITTGLYPFEGDNIYKLFENIGKGSYAIPGDCGPPLSDLLKGMLEYEPAKRFSIRQIRQHSWFRKKHPPAEAPVPIPPSPDTKDRWRSMTVVPYLEDLHGADEDEDLFDIEDDIIYTQDFTVPGQVPEEEASHNGQRRGLPKAVCMNGTEAAQLSTKSRAEGRAPNPARKACSASSKIRRLSACKQQ
As for B1, the binding result in assay [2] is listed as “binds”.

B2: HA-LKB1 (protein, UniProt Q15831-1 1-433)
chain: MEVVDPQQLGMFTEGELMSVGMDTFIHRIDSTEVIYQPRRKRAKLIGKYLMGDLLGEGSYGKVKEVLDSETLCRRAVKILKKKKLRRIPNGEANVKKEIQLLRRLRHKNVIQLVDVLYNEEKQKMYMVMEYCVCGMQEMLDSVPEKRFPVCQAHGYFCQLIDGLEYLHSQGIVHKDIKPGNLLLTTGGTLKISDLGVAEALHPFAADDTCRTSQGSPAFQPPEIANGLDTFSGFKVDIWSAGVTLYNITTGLYPFEGDNIYKLFENIGKGSYAIPGDCGPPLSDLLKGMLEYEPAKRFSIRQIRQHSWFRKKHPPAEAPVPIPPSPDTKDRWRSMTVVPYLEDLHGADEDEDLFDIEDDIIYTQDFTVPGQVPEEEASHNGQRRGLPKAVCMNGTEAAQLSTKSRAEGRAPNPARKACSASSKIRRLSACKQQ
Regarding B2, in assay [3], the binding entry is “binds”.

(Values after article PMC10568820.)
